This data set is described as follows: general procedure: Fmoc solid-phase peptide synthesis; Fmoc-Rink-PL resin (0.67 mmol/g); HBTU/HOBt/NMM. As to conditions: late stage modification step.

Consider “2-Methylalanyl-N-[(3R,4S,5S)-3-methoxy-1-{(2S)-2-[(1R,2R)-1-methoxy-2-methyl-3-oxo-3-{[(1S)-2-phenyl-1-(1,3-thiazol-2-yl)ethyl]amino}propyl]pyrrolidin-1-yl}-5-methyl-1-oxoheptan-4-yl]-N-methyl-L-valinamide”, for which the step yield is 75%. In addition, where the note is “HPLC Protocol A”, the “final HPLC purity” value is recorded as >97%.

(Values after patent publication US11780935B2 (Pfizer Healthcare Ireland, priority 2012, dated 2023).)
